Results from the supplement of paper PMC10331698.
± gives the standard deviation of the averaged measurements. Small differences around the control level are noise.

Tests used:
Experiment in all cases: level (log10 ratio to DMSO vehicle control); higher = higher biomarker level / cell amount than vehicle control
[1] = compound: CC(C)(C)C(=O)CC(=O)C(F)(F)C(F)(F)C(F)(F)F [(Heptafluorobutanoyl)pivaloylmethane]; settings: 2200 nM; in DMSO
Experimental: (§1)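 BioMAP Diversity Plus panel of 12 human primary cell co-culture systems (3C, 4H, LPS, SAg, BT, BF4T, BE3C, CASM3C, HDF3CGF, KF3CT, MyoF, Mphg). Compounds were added 1 h before stimulation and left for 24 h (MyoF 48 h; BT 72 h for soluble read-outs or 6 d for IgG). Biomarkers were read by ELISA, cytotoxicity by SRB, PBMC viability and proliferation by Alamar Blue. Each well value was divided by the mean of 8 DMSO control wells on the same plate and log10 transformed; duplicate blinded samples were tested at 4 concentrations.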

1-(Perfluorohexyl)octane = compound: CCCCCCCCC(F)(F)C(F)(F)C(F)(F)C(F)(F)C(F)(F)C(F)(F)F [1-(Perfluorohexyl)octane]; settings: in DMSO
Experimental: as §1

[2] = compound: CCN(CCO)S(=O)(=O)C(F)(F)C(F)(F)C(F)(F)C(F)(F)C(F)(F)C(F)(F)C(F)(F)C(F)(F)F [N-Ethyl-N-(2-hydroxyethyl)perfluorooctanesulfonamide]; settings: in DMSO
Experimental: as §1

[3] = compound: CN(C(=O)C(F)(F)C(F)(F)C(F)(F)F)[Si](C)(C)C [N-Methyl-N-trimethylsilylheptafluorobutyramide]; settings: 2200 nM; in DMSO
Experimental: as §1

[4] = compound: Cc1ccc(S(=O)(=O)OCC(F)(F)C(F)(F)C(F)(F)C(F)(F)C(F)(F)C(F)F)cc1 [1H,1H,7H-Perfluoroheptyl 4-methylbenzenesulfonate]; settings: 2200 nM; in DMSO
Experimental: as §1

[5] = compound: FC(F)(F)C(F)(F)C(F)(F)C(F)(F)C(F)(F)C(F)(F)CC1CO1 [3-(Perfluorohexyl)-1,2-epoxypropane]; settings: 2200 nM; in DMSO
Experimental: as §1

Heptafluorobutyramide = compound: NC(=O)C(F)(F)C(F)(F)C(F)(F)F [Heptafluorobutyramide]; settings: 2200 nM; in DMSO
Experimental: as §1

[6] = compound: NCC(F)(F)C(F)(F)C(F)(F)C(F)(F)C(F)(F)C(F)(F)C(F)(F)F [1H,1H-Perfluorooctylamine]; settings: 2200 nM; in DMSO
Experimental: as §1

Octafluoroadipic acid = compound: O=C(O)C(F)(F)C(F)(F)C(F)(F)C(F)(F)C(=O)O [Octafluoroadipic acid]; settings: 2200 nM; in DMSO
Experimental: as §1

[7] = compound: O=C(O)C(F)(F)C(F)(F)C(F)(F)C(F)(F)C(F)(F)C(F)(F)C(F)(F)C(F)(F)C(F)(F)C(F)F [11-H-Perfluoroundecanoic acid]; settings: 2200 nM; in DMSO
Experimental: as §1

Perfluoroheptanoic acid = compound: O=C(O)C(F)(F)C(F)(F)C(F)(F)C(F)(F)C(F)(F)C(F)(F)F [Perfluoroheptanoic acid]; settings: in DMSO
Experimental: as §1

Perfluoropentanoic acid = compound: O=C(O)C(F)(F)C(F)(F)C(F)(F)C(F)(F)F [Perfluoropentanoic acid]; settings: in DMSO
Experimental: as §1

[8] = compound: O=C(O)C(F)(F)C(F)(F)C(F)(F)OC(F)(F)F [Perfluoro(4-methoxybutanoic) acid]; settings: 2200 nM; in DMSO
Experimental: as §1

[9] = compound: O=S(=O)(O)CCC(F)(F)C(F)(F)C(F)(F)C(F)(F)C(F)(F)C(F)(F)C(F)(F)C(F)(F)F [8:2 Fluorotelomer sulfonic acid]; settings: in DMSO
Experimental: as §1

1H,1H-Heptafluorobutanol = compound: OCC(F)(F)C(F)(F)C(F)(F)F [1H,1H-Heptafluorobutanol]; settings: 2200 nM; in DMSO
Experimental: as §1

[10] = compound: OCCC(F)(F)C(F)(F)C(F)(F)C(F)(F)C(F)(F)C(F)(F)F [6:2 Fluorotelomer alcohol]; settings: 2200 nM; in DMSO
Experimental: as §1

Test System | level (log10) [1] | level (log10) (1-(Perfluorohexyl)octane; 740 nM) | level (log10) (1-(Perfluorohexyl)octane; 2200 nM) | level (log10) ([2]; 2200 nM) | level (log10) ([2]; 6700 nM) | level (log10) ([2]; 20000 nM) | level (log10) [3] | level (log10) [4] | level (log10) [5] | level (log10) (Heptafluorobutyramide) | level (log10) [6] | level (log10) (Octafluoroadipic acid) | level (log10) [7] | level (log10) (Perfluoroheptanoic acid; 2200 nM) | level (log10) (Perfluoroheptanoic acid; 6700 nM) | level (log10) (Perfluoroheptanoic acid; 20000 nM) | level (log10) (Perfluoroheptanoic acid; 60000 nM) | level (log10) (Perfluoropentanoic acid; 2200 nM) | level (log10) (Perfluoropentanoic acid; 6700 nM) | level (log10) (Perfluoropentanoic acid; 20000 nM) | level (log10) (Perfluoropentanoic acid; 60000 nM) | level (log10) [8] | level (log10) ([9]; 2200 nM) | level (log10) ([9]; 6700 nM) | level (log10) ([9]; 20000 nM) | level (log10) ([9]; 60000 nM) | level (log10) (1H,1H-Heptafluorobutanol) | level (log10) [10]
CASM3C:M-CSF | 0.029 ± 0.035 | 0.0145 ± 0.046 | -0.0135 ± 0.025 | 0.006 ± 0.047 | 0.0045 ± 0.00071 | 0.0395 ± 0.0092 | 0.0055 ± 0.043 | 0.003 ± 0.044 | 0.0235 ± 0.044 | 0.0275 ± 0.077 | -0.008 ± 0.054 | -0.024 ± 0.0014 | 0.0145 ± 0.026 | 0.051 ± 0.044 | -0.004 ± 0.028 | -0.005 ± 0.028 | 0.0035 ± 0.049 | -0.0075 ± 0.013 | -0.0055 ± 0.016 | -0.004 ± 0.017 | 0.0045 ± 0.032 | 0.0275 ± 0.077 | 0.0095 ± 0.052 | 0.0005 ± 0.015 | -0.0115 ± 0.0021 | 0.037 ± 0.028 | 0.0345 ± 0.013 | 0.035 ± 0.072
CASM3C:PAI-I | -0.0045 ± 0.0035 | 0.003 ± 0.014 | 0.008 ± 0.0071 | 0 | 0 ± 0.0071 | 0.004 ± 0.0085 | 0.002 ± 0.025 | 0.002 ± 0.014 | 0.012 ± 0.018 | 0.009 ± 0.0057 | 0.0075 ± 0.0078 | -0.007 ± 0.016 | -0.006 ± 0.0085 | 0.009 ± 0.0085 | -0.0005 ± 0.018 | 0.0035 ± 0.011 | 0.0105 ± 0.015 | -0.0075 ± 0.013 | -0.0095 ± 0.011 | -0.007 ± 0.0042 | 0.0005 ± 0.011 | 0.0075 ± 0.0021 | 0.001 ± 0.016 | -0.0015 ± 0.019 | 0.012 ± 0.018 | 0.0095 ± 0.012 | -0.0015 ± 0.0092 | 0.0135 ± 0.00071
CASM3C:Proliferation | 0.0205 ± 0.028 | -0.028 | -0.036 ± 0.041 | 0.025 ± 0.041 | 0.011 ± 0.04 | -0.175 ± 0.005 | 0.0305 ± 0.033 | -0.017 ± 0.011 | -0.023 ± 0.0042 | -0.012 ± 0.044 | -0.0225 ± 0.044 | -0.0045 ± 0.019 | -0.033 ± 0.047 | -0.0135 ± 0.005 | -0.023 ± 0.0085 | -0.008 ± 0.035 | 0.0045 ± 0.053 | 0.0015 ± 0.0035 | 0.0185 ± 0.021 | -0.0305 ± 0.067 | 0.0215 ± 0.052 | -0.0455 ± 0.039 | 0.01 ± 0.031 | 0.005 ± 0.072 | 0.0065 ± 0.022 | 0.0245 ± 0.023 | 0.009 ± 0.0057 | -0.0105 ± 0.00071
CASM3C:SRB | 0.004 ± 0.0014 | 0.005 ± 0.017 | 0 ± 0.0099 | -0.01 ± 0.0042 | -0.0265 ± 0.0078 | -0.097 ± 0.014 | -0.001 ± 0.011 | 0.004 ± 0.0028 | 0.003 ± 0.0071 | -0.015 ± 0.023 | -0.0005 ± 0.00071 | -0.0045 ± 0.00071 | 0.0075 ± 0.005 | 0.0035 ± 0.0035 | -0.008 ± 0.0099 | -0.011 ± 0.0014 | -0.0065 ± 0.012 | 0.012 ± 0.018 | 0.0095 ± 0.0021 | -0.008 ± 0.0014 | 0.004 ± 0.0099 | -0.0095 ± 0.00071 | 0.0055 ± 0.015 | 0.0075 ± 0.005 | 0.0055 ± 0.005 | 0.0105 ± 0.0035 | 0.007 ± 0.0028 | 0.0115 ± 0.028
CASM3C:Serum Amyloid A | 0 ± 0.0028 | 0.0115 ± 0.064 | -0.023 ± 0.017 | -0.029 ± 0.031 | 0.0875 ± 0.037 | 0.129 ± 0.042 | -0.0005 ± 0.04 | 0.0265 ± 0.039 | 0.0235 ± 0.064 | 0.0095 ± 0.033 | 0.0185 ± 0.033 | -0.016 ± 0.089 | 0.019 | 0.039 ± 0.041 | -0.006 ± 0.021 | -0.013 ± 0.04 | 0.022 ± 0.082 | 0.006 ± 0.03 | -0.003 ± 0.0071 | -0.013 ± 0.011 | -0.0045 ± 0.033 | -0.0035 ± 0.023 | 0.0285 ± 0.012 | 0.0195 ± 0.0064 | 0.0475 ± 0.025 | 0.096 ± 0.0042 | -0.018 ± 0.0014 | 0.0245 ± 0.079
